The target in assay [1] is T1, Spc105 (S. cerevisiae) (UniProt P53148).
T1 sequence: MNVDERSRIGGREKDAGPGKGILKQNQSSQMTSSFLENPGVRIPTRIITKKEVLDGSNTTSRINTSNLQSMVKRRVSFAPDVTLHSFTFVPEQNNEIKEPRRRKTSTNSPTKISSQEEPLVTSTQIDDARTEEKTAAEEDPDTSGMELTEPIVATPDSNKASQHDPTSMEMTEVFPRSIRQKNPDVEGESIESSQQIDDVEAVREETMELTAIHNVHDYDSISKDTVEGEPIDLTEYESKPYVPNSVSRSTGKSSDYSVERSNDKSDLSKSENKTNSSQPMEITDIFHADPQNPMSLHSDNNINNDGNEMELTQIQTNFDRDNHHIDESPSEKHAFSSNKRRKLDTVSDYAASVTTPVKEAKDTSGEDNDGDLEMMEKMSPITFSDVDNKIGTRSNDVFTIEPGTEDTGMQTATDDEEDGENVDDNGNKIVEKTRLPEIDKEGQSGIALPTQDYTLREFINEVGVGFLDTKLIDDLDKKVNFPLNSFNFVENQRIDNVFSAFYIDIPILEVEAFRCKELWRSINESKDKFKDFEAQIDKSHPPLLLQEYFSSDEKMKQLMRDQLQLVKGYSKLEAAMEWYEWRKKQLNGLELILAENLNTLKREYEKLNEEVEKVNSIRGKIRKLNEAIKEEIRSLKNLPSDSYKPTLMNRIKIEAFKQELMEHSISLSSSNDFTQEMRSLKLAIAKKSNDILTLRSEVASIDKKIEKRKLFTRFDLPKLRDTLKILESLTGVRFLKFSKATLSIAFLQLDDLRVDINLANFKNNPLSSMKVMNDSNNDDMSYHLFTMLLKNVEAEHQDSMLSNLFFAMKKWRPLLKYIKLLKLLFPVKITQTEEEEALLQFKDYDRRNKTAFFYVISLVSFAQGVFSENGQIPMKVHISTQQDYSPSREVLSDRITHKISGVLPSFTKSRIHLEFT
The assay is described as follows: co-IP; purification on anti-FLAG agarose from lysates of cycling cells or cells arrested with nocodazole for 3.5 h; western blot with anti-myc and anti-FLAG-HRP; for Spc105-6A the WT Spc105 was depleted with IAA. For orientation: Immunoblotting shows a protein as a band on a membrane.

Sequences of proteins named here, by UniProt entry; tags and fusion partners are left off.
UniProt P38198: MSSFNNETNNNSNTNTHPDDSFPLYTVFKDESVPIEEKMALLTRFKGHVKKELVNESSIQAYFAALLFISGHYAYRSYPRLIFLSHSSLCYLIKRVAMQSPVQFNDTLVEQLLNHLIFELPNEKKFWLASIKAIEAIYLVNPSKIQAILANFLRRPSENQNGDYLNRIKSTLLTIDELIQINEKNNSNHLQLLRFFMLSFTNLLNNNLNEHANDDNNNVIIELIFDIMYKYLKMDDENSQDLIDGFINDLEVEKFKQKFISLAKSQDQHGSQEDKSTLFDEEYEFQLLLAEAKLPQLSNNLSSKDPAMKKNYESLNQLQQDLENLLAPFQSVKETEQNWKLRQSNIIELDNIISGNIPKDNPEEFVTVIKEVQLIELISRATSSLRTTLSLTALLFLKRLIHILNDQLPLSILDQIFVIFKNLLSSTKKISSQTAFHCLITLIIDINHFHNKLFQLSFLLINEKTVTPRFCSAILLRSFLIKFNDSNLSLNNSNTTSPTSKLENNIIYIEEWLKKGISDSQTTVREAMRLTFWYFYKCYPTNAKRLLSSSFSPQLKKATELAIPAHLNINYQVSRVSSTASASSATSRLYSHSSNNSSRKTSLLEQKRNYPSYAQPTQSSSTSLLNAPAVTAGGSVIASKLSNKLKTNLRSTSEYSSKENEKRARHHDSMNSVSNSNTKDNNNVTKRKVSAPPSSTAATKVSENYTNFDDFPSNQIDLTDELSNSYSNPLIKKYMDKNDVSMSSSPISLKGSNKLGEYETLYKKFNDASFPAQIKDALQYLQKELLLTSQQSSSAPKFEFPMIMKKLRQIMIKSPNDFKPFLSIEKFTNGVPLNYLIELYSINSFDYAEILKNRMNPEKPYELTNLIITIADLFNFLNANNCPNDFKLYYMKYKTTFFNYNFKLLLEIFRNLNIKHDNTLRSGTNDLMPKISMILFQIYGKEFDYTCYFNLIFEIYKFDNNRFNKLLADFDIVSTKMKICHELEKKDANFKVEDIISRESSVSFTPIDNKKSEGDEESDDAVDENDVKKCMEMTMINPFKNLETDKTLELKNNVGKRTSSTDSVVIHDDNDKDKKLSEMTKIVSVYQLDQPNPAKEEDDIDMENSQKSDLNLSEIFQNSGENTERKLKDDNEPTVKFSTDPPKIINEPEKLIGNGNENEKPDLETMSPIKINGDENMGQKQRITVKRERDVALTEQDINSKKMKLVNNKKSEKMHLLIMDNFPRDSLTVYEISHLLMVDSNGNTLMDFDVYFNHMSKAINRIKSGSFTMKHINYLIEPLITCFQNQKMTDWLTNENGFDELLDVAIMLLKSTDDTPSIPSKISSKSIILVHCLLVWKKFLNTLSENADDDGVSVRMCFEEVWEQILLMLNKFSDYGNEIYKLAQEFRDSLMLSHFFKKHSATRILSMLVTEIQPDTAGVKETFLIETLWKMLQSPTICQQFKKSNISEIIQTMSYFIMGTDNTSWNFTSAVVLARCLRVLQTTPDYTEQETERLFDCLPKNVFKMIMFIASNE

Assay [2] has as its target T1, Spc105 (S. cerevisiae). The assay is described as follows: co-IP; cells treated with nocodazole; no figure is pointed to for this result.

The text below walks through data of article PMC5830412.

These are yes or no findings as the source states them, for the method shown. Binding seen in cells or lysates may run through a third protein. Some binding calls cover weakened binding; strength is not graded here.

Take Stu1 (from UniProt P38198 1-1513): the binding result in assay [1] is recorded as “binds”.

B1: Slk19 (protein, UniProt Q08581 1-821)
chain: MNEVPTTPVRLILGQAQQREQNSENCSQERNPRTFNSEPDSSFNSPGSSQFVIHPHEPLEKEKDEKQDLDRSIDYGRSSALNNKNNANPLENIDINKMFDDKKSDSGTNDDKGGASTSDKHVLALNYSPIRVEMNSSEKRSDKNVDVDENDKEGSHINKKLKLQLESVPDLKQSSTKDIINDKEEIMSSPMAIDMIETNISPNKFIINDGVERNDSFNINTDTLKLENDINEKQQEEDFIKSNSNNVVNIDNAYKEKEDEENDITNSHINRLTPLYETSARESNSNEEGRNDYDDDNQLDIRHDNFQIVAKRNEELTDQIYHLNQMLNSLISKNESLSFQYEKLNKNHQLLIDLTNEKLDKLNTERESDIAKVEKFKKRIKELNTEIKVLNSNQKILQEKFDASITEVNHIKGEHENTVNTLQQNEKILNDKNVELENMKAELKGNNDKLSEYETTLNDLNSRIVQLNDKIESTDIVLKSKENELDNLKLSLKETLSISKDFNDSDLIGQINELISTKNNLQQKMDDLNNLNDDNLKVVQDKLIKNEETLKLKEAEIDSLNSEMDELKKQITSKDDEFKMWQSKYETVEDEAKIRNAEVTELNGDIEDLKESKLHLEETITELENKVHKLENECELEKQKFEKTSLELESLQLKNSNIQAEHIKELENLHENLISLQNELKISSDRITTLTKENEVLMEQNNNNNNSVTLSNDQKDRDDEKIKSLGKQVQDWKEKYEAKEKDTNKRLKLLAEDLYIQYSSKHEQKVKLLKKGYENKYQNKFDQLNLENKTLSEEIEQLNKQLSSEREEKQELLKLLENEKK
Turning to B1, the binding entry in assay [2] is reported as “no binding”.
